The list shows a part of the results.

Sequences of proteins named here, by UniProt entry; tags and fusion partners are left off. A change or cut given only in a name is not applied to a line headed by its entry.
UniProt O15226: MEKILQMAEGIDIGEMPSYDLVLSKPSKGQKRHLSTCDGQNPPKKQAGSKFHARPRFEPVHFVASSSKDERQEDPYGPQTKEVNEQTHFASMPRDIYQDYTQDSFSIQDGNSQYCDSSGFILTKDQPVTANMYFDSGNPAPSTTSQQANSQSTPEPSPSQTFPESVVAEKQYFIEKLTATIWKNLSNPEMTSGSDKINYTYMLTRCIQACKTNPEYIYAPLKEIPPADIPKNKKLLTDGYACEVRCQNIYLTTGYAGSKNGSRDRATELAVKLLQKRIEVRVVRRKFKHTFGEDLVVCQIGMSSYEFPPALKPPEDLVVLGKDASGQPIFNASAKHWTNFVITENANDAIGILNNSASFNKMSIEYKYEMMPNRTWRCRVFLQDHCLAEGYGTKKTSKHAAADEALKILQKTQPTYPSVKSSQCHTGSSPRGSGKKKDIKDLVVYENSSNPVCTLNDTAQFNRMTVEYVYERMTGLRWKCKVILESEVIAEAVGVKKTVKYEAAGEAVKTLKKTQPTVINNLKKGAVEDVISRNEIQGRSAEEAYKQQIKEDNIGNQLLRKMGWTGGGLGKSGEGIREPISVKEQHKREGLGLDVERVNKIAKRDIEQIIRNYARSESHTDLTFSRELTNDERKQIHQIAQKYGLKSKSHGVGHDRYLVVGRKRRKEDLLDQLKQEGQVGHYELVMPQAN
UniProt P03915, whole entry: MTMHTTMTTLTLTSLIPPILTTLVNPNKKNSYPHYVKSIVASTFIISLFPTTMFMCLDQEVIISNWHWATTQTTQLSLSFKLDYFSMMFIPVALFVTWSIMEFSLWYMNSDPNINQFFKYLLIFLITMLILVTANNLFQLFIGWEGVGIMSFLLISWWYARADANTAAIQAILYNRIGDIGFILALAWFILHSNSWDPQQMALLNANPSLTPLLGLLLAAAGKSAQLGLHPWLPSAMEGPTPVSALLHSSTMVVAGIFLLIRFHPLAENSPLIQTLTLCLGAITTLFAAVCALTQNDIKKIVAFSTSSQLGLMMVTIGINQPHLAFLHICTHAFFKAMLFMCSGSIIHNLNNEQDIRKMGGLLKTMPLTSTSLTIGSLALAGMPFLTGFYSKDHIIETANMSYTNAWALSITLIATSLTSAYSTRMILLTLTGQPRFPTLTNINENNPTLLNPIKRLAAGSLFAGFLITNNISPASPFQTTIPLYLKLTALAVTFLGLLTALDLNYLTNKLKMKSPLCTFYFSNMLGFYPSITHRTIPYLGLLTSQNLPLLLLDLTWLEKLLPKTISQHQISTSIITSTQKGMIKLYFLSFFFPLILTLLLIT
UniProt Q9UBU9: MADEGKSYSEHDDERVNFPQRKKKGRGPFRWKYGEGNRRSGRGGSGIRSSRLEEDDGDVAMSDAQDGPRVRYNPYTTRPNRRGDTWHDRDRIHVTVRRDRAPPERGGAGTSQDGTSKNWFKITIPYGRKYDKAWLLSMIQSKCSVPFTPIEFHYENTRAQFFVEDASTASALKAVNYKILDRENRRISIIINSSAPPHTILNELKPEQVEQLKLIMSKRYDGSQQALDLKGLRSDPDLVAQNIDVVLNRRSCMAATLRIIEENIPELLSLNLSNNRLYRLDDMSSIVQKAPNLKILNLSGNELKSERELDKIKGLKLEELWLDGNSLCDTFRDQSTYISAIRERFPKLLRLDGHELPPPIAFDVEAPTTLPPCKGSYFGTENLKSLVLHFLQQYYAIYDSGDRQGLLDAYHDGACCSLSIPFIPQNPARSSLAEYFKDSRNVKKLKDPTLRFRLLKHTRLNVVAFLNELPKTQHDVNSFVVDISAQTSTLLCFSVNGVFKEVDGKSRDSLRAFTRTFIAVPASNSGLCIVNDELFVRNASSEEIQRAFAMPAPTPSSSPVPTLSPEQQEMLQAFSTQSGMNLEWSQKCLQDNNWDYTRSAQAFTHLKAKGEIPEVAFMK
UniProt Q9NX24: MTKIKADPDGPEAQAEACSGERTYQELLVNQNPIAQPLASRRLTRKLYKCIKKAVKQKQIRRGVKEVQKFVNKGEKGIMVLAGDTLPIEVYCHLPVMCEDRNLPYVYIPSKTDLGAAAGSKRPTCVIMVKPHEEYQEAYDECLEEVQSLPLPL
UniProt O43181, whole entry: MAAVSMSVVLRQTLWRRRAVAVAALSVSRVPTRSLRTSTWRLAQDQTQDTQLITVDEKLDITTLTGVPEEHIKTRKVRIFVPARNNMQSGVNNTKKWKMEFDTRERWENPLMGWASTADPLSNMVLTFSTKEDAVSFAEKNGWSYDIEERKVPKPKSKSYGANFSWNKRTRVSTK
UniProt Q8NFH3: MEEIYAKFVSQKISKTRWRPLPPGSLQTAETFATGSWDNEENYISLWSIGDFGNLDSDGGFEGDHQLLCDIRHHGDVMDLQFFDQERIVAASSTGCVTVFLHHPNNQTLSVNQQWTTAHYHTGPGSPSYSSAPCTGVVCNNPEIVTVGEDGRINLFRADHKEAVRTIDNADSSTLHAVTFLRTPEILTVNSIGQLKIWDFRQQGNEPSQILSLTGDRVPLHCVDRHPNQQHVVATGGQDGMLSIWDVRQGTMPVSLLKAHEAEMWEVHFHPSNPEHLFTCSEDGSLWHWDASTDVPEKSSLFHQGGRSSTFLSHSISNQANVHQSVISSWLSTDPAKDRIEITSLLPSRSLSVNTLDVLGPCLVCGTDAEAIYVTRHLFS
UniProt O43847: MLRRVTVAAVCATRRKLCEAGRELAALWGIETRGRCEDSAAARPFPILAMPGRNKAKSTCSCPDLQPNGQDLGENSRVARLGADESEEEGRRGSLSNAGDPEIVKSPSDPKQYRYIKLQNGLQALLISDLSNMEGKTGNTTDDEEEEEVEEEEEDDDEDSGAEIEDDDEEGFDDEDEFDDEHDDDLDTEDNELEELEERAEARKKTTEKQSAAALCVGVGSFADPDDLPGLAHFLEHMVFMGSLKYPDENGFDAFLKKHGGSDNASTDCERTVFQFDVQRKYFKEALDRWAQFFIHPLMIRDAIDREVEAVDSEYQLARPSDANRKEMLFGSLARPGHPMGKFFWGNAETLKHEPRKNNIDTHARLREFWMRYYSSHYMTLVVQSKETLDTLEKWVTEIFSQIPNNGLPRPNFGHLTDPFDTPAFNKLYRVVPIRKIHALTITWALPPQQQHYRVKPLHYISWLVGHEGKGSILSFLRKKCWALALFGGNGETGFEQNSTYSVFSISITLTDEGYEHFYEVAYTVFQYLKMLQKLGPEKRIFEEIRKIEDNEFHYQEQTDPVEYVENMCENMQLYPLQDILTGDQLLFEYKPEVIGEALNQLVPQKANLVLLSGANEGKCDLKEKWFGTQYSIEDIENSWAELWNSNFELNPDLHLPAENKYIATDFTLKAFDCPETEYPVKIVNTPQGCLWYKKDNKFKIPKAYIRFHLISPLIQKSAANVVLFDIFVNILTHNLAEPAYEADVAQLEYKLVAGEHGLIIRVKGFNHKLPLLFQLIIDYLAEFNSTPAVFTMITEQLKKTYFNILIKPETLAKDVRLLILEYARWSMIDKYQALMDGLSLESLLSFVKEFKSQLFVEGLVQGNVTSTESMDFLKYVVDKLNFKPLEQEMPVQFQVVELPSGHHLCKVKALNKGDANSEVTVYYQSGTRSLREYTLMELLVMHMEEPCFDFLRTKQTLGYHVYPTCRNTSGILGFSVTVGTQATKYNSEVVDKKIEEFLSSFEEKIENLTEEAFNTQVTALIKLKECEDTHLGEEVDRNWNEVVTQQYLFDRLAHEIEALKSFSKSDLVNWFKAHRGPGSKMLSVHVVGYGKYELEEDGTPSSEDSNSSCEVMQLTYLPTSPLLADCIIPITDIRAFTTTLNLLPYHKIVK
UniProt P03891, whole entry: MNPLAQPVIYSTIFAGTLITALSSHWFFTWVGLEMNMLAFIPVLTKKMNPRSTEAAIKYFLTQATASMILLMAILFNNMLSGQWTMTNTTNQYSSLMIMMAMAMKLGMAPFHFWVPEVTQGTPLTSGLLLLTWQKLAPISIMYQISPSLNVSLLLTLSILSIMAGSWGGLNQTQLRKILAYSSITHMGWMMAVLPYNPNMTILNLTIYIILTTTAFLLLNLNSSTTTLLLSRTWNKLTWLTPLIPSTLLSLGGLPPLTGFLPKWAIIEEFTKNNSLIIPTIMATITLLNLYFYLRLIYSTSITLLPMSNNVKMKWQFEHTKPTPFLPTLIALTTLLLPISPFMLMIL
UniProt Q8NC96: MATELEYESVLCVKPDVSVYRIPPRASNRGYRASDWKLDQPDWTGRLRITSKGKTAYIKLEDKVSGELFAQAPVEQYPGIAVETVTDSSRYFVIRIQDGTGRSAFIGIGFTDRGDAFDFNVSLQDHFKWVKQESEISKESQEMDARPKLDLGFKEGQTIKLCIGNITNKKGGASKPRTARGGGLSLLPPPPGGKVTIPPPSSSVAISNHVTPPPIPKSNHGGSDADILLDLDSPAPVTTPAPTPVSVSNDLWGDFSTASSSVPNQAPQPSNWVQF
UniProt Q8NFH4: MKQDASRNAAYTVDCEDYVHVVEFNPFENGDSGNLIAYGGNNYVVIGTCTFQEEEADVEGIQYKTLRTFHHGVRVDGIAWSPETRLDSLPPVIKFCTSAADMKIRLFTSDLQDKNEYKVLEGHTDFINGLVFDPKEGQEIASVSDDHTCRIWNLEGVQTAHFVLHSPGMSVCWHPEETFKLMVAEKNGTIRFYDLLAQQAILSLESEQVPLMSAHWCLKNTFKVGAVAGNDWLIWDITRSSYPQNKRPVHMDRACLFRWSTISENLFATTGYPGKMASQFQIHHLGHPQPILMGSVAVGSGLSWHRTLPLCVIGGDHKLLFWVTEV
UniProt P23511, whole entry: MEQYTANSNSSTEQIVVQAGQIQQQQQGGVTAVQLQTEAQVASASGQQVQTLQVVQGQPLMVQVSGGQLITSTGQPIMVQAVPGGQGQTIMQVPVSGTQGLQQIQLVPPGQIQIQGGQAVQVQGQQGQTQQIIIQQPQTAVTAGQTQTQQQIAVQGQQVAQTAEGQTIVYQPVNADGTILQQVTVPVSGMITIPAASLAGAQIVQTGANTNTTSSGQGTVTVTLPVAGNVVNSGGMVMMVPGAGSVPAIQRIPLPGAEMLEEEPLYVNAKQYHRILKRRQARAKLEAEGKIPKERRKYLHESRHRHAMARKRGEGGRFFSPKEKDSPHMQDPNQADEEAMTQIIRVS
UniProt P03905, whole entry, looked up: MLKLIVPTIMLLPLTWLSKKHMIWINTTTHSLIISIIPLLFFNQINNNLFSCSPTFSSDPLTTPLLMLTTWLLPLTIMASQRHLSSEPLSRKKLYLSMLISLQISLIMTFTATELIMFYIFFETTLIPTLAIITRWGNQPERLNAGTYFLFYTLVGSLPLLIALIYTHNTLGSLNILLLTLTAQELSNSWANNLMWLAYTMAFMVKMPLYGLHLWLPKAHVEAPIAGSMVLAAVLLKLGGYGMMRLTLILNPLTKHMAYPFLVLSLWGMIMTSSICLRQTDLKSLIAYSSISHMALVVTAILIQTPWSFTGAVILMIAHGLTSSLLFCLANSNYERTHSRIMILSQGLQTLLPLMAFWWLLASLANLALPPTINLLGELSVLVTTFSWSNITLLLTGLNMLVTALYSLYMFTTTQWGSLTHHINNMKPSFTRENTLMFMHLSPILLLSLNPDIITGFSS
UniProt P16083: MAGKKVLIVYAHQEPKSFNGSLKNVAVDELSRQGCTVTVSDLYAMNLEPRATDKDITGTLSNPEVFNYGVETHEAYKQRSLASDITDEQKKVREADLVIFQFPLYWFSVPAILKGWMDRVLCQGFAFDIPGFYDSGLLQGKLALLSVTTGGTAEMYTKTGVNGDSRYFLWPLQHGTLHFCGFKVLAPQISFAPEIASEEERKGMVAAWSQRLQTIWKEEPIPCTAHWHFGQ
UniProt Q99747: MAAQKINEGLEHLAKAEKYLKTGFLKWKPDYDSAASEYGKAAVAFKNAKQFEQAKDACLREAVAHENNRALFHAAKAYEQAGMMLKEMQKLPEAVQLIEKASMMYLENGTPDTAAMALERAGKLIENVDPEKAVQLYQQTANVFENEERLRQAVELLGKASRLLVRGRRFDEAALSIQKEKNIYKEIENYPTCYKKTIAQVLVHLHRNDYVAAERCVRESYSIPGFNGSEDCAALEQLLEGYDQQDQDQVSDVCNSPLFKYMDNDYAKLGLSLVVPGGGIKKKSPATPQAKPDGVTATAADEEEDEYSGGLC
UniProt Q96CB9: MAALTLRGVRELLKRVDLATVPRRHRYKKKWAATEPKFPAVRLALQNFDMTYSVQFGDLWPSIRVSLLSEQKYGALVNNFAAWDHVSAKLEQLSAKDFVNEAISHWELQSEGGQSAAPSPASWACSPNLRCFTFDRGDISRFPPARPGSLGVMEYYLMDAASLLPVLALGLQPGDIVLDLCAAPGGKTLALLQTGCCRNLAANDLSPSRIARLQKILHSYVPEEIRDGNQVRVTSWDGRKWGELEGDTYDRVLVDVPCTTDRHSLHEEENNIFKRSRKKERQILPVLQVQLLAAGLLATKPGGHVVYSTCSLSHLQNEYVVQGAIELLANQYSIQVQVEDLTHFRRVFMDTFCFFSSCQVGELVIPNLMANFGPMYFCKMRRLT
UniProt O43676, whole entry: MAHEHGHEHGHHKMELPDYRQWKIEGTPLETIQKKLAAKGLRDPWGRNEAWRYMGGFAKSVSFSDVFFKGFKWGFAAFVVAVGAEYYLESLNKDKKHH

Compound in this test: COc1ccc(Cn2ccc3cc(C)c(C(=O)NO)cc32)cc1
The test can be described thus: dose-dependent thermal stabilisation call (2D-TPP, DLPTP, 10% FDR) (binary (1 = stabilised)); higher = stabilised by the compound. The settings on record: system: HL-60 intact cells; concentration range 0.04-10 µM. The procedure: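 2D thermal proteome profiling in intact HL-60 cells treated with BRD-3811 (0, 0.04, 0.29, 2, 10 uM) for 90 min at 37 C, then heated 3 min at one of 12 temperatures (42-63.9 C). Soluble protein was quantified by TMT10 MS. The value is the DLPTP call of the paper: dose-dependent thermal stabilisation over all temperatures at 10% FDR (F-test of a dose-response against a flat model); one experiment, one call per tested protein.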
Turning to NKRF (UniProt O15226), the “dose-dependent thermal stabilisation call” value is inactive: 0. As to NANP (UniProt Q8TBE9), the “dose-dependent thermal stabilisation call” value was inactive: 0. Regarding NUP107 (UniProt P57740), the “dose-dependent thermal stabilisation call” value was inactive: 0. For NFX1 (UniProt Q12986), the “dose-dependent thermal stabilisation call” value is inactive: 0. Consider ND5 (UniProt P03915), for which the “dose-dependent thermal stabilisation call” value is inactive: 0. Regarding NDUFB10 (UniProt O96000), the “dose-dependent thermal stabilisation call” value is inactive: 0. In the case of NKTR (UniProt P30414), the “dose-dependent thermal stabilisation call” value is inactive: 0. The value for NXF1 (UniProt Q9UBU9) was inactive: 0; that for NHP2 (UniProt Q9NX24) was inactive: 0; that for NRBF2 (UniProt Q96F24) was inactive: 0. Regarding NDUFS4 (UniProt O43181), the “dose-dependent thermal stabilisation call” value was inactive: 0.

Regarding NUP43 (UniProt Q8NFH3), the “dose-dependent thermal stabilisation call” value is inactive: 0. For NRD1 (UniProt O43847), the “dose-dependent thermal stabilisation call” value was inactive: 0. For ND2 (UniProt P03891), the “dose-dependent thermal stabilisation call” value was inactive: 0. As for NECAP1 (UniProt Q8NC96), the “dose-dependent thermal stabilisation call” value is inactive: 0. As to NUP37 (UniProt Q8NFH4), the “dose-dependent thermal stabilisation call” value was inactive: 0. Regarding OCIAD2 (UniProt Q56VL3), the “dose-dependent thermal stabilisation call” value was inactive: 0. As to NFATC2IP (UniProt Q8NCF5), the “dose-dependent thermal stabilisation call” value was inactive: 0.

Turning to NFYA (UniProt P23511), the “dose-dependent thermal stabilisation call” value was inactive: 0. Consider NUP205 (UniProt Q92621), for which the “dose-dependent thermal stabilisation call” value was inactive: 0. In the case of ND4 (UniProt P03905), the “dose-dependent thermal stabilisation call” value is inactive: 0. Take NQO2 (UniProt P16083): the “dose-dependent thermal stabilisation call” value is inactive: 0. Under NUTF2 (UniProt P61970) stands inactive: 0; under NIT2 (UniProt Q9NQR4), inactive: 0. Turning to NOLC1 (UniProt Q14978), the “dose-dependent thermal stabilisation call” value was inactive: 0. For the target NAPG (UniProt Q99747), the “dose-dependent thermal stabilisation call” value is inactive: 0. With NDUFB8 (UniProt O95169), the “dose-dependent thermal stabilisation call” value is inactive: 0. For NAT14 (UniProt Q8WUY8), the “dose-dependent thermal stabilisation call” value is inactive: 0. In the case of NFKBIE (UniProt O00221), the “dose-dependent thermal stabilisation call” value is inactive: 0. The value for NAGLU (UniProt P54802) was inactive: 0; that for NSUN5 (UniProt Q96P11) was inactive: 0; that for NPM1 (UniProt P06748) was inactive: 0. Under NLRC4 (UniProt Q9NPP4) stands inactive: 0. For the target NCOA3 (UniProt Q9Y6Q9), the “dose-dependent thermal stabilisation call” value was inactive: 0. On to NUP50 (UniProt Q9UKX7), for which the “dose-dependent thermal stabilisation call” value is inactive: 0. NSUN4 (UniProt Q96CB9): the “dose-dependent thermal stabilisation call” value was inactive: 0. For NOL8 (UniProt Q76FK4), the “dose-dependent thermal stabilisation call” value is inactive: 0. For the target NENF (UniProt Q9UMX5), the “dose-dependent thermal stabilisation call” value is inactive: 0. Take NDUFB3 (UniProt O43676): the “dose-dependent thermal stabilisation call” value was inactive: 0. Take NEU1 (UniProt Q99519): the “dose-dependent thermal stabilisation call” value is inactive: 0.

The values are drawn from the supplement of paper PMC7666118.
